Consider 114 substances from the supplement of paper PMC5949888.

Most values lie at the floor of the assay. Slopes are relative: functional sequences can read slightly below zero.

This series concerns Saccharomyces cerevisiae PS128 hsf1 delta, HSF1(1-493) fusion. The series is described as follows: growth estimate (transactivation domain function in HSF1 fusion, heat-shock survival) (a.u. (slope of normalised read count over time)); higher = stronger growth at 37°C, i.e. more transactivation activity. The conditions noted are these: library: random library. The method, then:
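Random 60-nt DNA library encoding peptides of up to 20 aa, fused to the C-terminus of yeast HSF1 residues 1-493 (C-terminal TAD deleted) and expressed from the native HSF1 promoter on a CEN plasmid in hsf1-deleted S. cerevisiae PS128. Cells were selected at 37°C on -trp 5-FOA plates for 0, 2, 4, 6 and 8 days and amplicons were sequenced. Growth estimate is the slope of a robust linear fit of total-sum-normalised read counts (normalised to the first time point) over time, using at least 2 replicates. Sequences are classed functional (TAD activity) above a threshold of -0.13, set from stop-codon control sequences.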
With MRNRTHDAGHVSSHGHD, the growth estimate was < -0.25.

On to NEISLGLSGRTGPLKSS, for which the growth estimate was < -0.25.

Consider FGEWKRLEEARQLNPTNSGP, for which the growth estimate was < -0.25.

Consider DHRQADLKGDGAVNSDKNTS, for which the growth estimate is < -0.25.

Turning to IGYMTGIVYYVIDPDHCRGS, the growth estimate is < -0.25.

TGLEGTRLTSSSIEIEC: the growth estimate is < -0.25.

As for SAIPQVGAVMQH, the growth estimate was < -0.25.

Consider GRPCIRLLKTAGLL, for which the growth estimate was < -0.25.

With FSVRSDREVRSHVNLRYSQW, the growth estimate is < -0.25.

For SCSRRCDPVDKGARRLPARK, the growth estimate is < -0.25.

With LGFVY, the growth estimate is < -0.25.

As for LLVIPLLGHRKRRYG, the growth estimate was < -0.25.

As to GCGLGIRR, the growth estimate is < -0.25.

Consider PPFW, for which the growth estimate was < -0.25.

For the substance GSWWMQGAEGN, the growth estimate was < -0.25.

For LSHFKKAELRDEVLHIRE, the growth estimate is < -0.25.

In the case of AWSPTLPR, the growth estimate was < -0.25.

As to GDTQVWYRSSIYFLA, the growth estimate was < -0.25.

As to YKNQRNSRTTGRGLQ, the growth estimate is -0.0978.

Take HSSRSRRGNSLCLFRSNTPR: the growth estimate was < -0.25.

As to LDRGSDIQVPSGRGIALGTP, the growth estimate was < -0.25.

Take CPKDLLVSERMPTENYAPAG: the growth estimate was < -0.25.

Turning to HDWE, the growth estimate is < -0.25.

On to QEPRYGAIRISS, for which the growth estimate was < -0.25.

Take VEEKGFCSV: the growth estimate is < -0.25.

Turning to RCV, the growth estimate was < -0.25.

As for PISPPCRVW, the growth estimate is < -0.25.

In the case of AERVHVFSRRTRLSG, the growth estimate is < -0.25.

For the substance LSAPQS, the growth estimate is -0.245.

In the case of RTFLWRITQPPIVQGLG, the growth estimate was < -0.25.

For the substance QYGNSTILNKGQHSKYVISP, the growth estimate is -0.245.

Take RRSKCC: the growth estimate is < -0.25.

Consider HIMCQSVRVIAT, for which the growth estimate was < -0.25.

For IKDSLLPTVLT, the growth estimate was < -0.25.

FVSQTSCQVMYSNFNYD: the growth estimate was < -0.25.

Turning to GSRTRLLKFLTRCNSKATSR, the growth estimate is < -0.25.

Regarding RTVFEDRSWSVTGCCF, the growth estimate was < -0.25.

For the substance TKKK, the growth estimate is < -0.25.

As for KGRI, the growth estimate was < -0.25.

For GSRSCD, the growth estimate is < -0.25.

Turning to SMVPQDSGHLFCTSDSPSAH, the growth estimate is < -0.25.

For EASSP, the growth estimate is < -0.25.

On to TVMRDKNVIRNGAREICI, for which the growth estimate was < -0.25.

Consider NMSGPVLLRGFIDRISLWCH, for which the growth estimate was < -0.25.

For the substance HRSREGPH, the growth estimate is < -0.25.

Regarding GIIDFPWTRVTLVLGGRLLA, the growth estimate is < -0.25.

With EHHEEGFV, the growth estimate was < -0.25.

For the substance NATTGRCKMV, the growth estimate was < -0.25.

LSSRSILWD: the growth estimate was < -0.25.

As for VNTCTICDHRFNQDPIDSRF, the growth estimate is < -0.25.

For the substance RQSLGRTNLVASDWSEAMNR, the growth estimate was < -0.25.

For SHMIRGAYAIHPNNQLALPC, the growth estimate was < -0.25.

Take TFHYDLSSDVKSADAWWV: the growth estimate was 0.661.

In the case of GTGMVMQAVNEGHQYTTPGR, the growth estimate was < -0.25.

As to RINRSDVCPAVSLIEVGDGL, the growth estimate was < -0.25.

Consider HIPSHLS, for which the growth estimate was < -0.25.

For GHPWGIGPPLLVLGLPKASS, the growth estimate was < -0.25.

Turning to TSTAPIIGRPPRPDSSQLNP, the growth estimate is < -0.25.

Take FHSVRWAYVCN: the growth estimate was < -0.25.

Turning to GYRYFERRLQVHVSGQD, the growth estimate was < -0.25.

Consider SRRDHS, for which the growth estimate was < -0.25.

As to TSPKVNHQHGGYSQDTGD, the growth estimate was < -0.25.

Consider SVSHTLDGN, for which the growth estimate was < -0.25.

In the case of RISNVLSDDIM, the growth estimate is < -0.25.

Regarding PVINSALDKFFARGPRGYRW, the growth estimate is < -0.25.

Turning to LLVCKSDLLPCIQVLKLSIV, the growth estimate is < -0.25.

Turning to SELEKGYTRQGFLRNLNSGA, the growth estimate is < -0.25.

Take NRLLARRHMRVSRCSATSLV: the growth estimate was < -0.25.

Consider LGNRLAIINWSGAR, for which the growth estimate was < -0.25.

On to GRPVNRLIK, for which the growth estimate was < -0.25.

Turning to LAYRHSIAAQHGTGHFVASW, the growth estimate was < -0.25.

As for RIHRSVIAFCHIYSAKAG, the growth estimate is < -0.25.

For the substance GIASSKHAFRESSSGY, the growth estimate is < -0.25.

Regarding QNLSGTRL, the growth estimate was < -0.25.

ALVVVGQVLILGNTAHRAAG: the growth estimate is < -0.25.

For RTGLVDVVEV, the growth estimate is < -0.25.

For the substance PKHMK, the growth estimate was < -0.25.

Turning to KQTTVHEGKGSGGNCPNHTC, the growth estimate is < -0.25.

In the case of GGACWRVVTLD, the growth estimate is -0.222.

In the case of PDHGTIRIKEHRIQLNTAVA, the growth estimate is < -0.25.

As for AVTKYRAGPGLRARQGGNYN, the growth estimate was < -0.25.

For the substance TVVHVHIWFGPLAVLLPFPA, the growth estimate is < -0.25.

On to GKATLFSSGRVNLHGVRVGC, for which the growth estimate was < -0.25.

For the substance PSHYQPAILSHWCRKQAFAP, the growth estimate is < -0.25.

SALRPT: the growth estimate was < -0.25.

As to VSETRRAGTSPHS, the growth estimate is < -0.25.

Regarding CRSKIIKAGVMFGDV, the growth estimate was < -0.25.

Regarding WRVSAQHM, the growth estimate was < -0.25.

With HDLWRSRIFQYPLQEPYRPL, the growth estimate is < -0.25.

As to WPRPGKATQVRLPTHRLLLG, the growth estimate is < -0.25.

As for ERKAGSFA, the growth estimate was < -0.25.

Turning to VVISGIFVIYARA, the growth estimate was < -0.25.

For the substance RVVSDANCRLRIRHGRNRGP, the growth estimate is < -0.25.

Regarding KNSYQSNTTGKPRSLGFSI, the growth estimate was < -0.25.

For the substance VDGWMFGDPTLDRRTGRNGA, the growth estimate is -0.248.

Take SWTA: the growth estimate was < -0.25.

For RHSVRLSVINYRRYGRANCS, the growth estimate is < -0.25.

Turning to GIGSGLVQSHTVGLLFMGNR, the growth estimate is < -0.25.

Take RVGISCHTYG: the growth estimate was < -0.25.

In the case of ALNESFHFTIPLGIFHILSH, the growth estimate is < -0.25.

Consider WVQRSSAQ, for which the growth estimate was < -0.25.

Consider TVGYQKTDPIVTF, for which the growth estimate was < -0.25.

For the substance KRVTRSRYVERFAMALDSVD, the growth estimate is < -0.25.

In the case of QSSNGGLGPRHIVSRPTLGD, the growth estimate was < -0.25.

On to FSAGLWDSVFGSKRYEWQVR, for which the growth estimate is < -0.25.

In the case of LHYGCIVGEN, the growth estimate is < -0.25.

In the case of LASNAATVWIRSSEESFDGH, the growth estimate is < -0.25.

As for LTRVPGEVRHKPSRAESSWY, the growth estimate is < -0.25.

For the substance SPTKRHRSSPSLHRVPKYYF, the growth estimate was < -0.25.

For the substance GTGAIKLTYW, the growth estimate was < -0.25.

As for RTGRGIILDCGSQMGSYHIC, the growth estimate was < -0.25.

Consider CSEASPLLCCVYSLGLLKRE, for which the growth estimate was < -0.25.

For SDLK, the growth estimate is < -0.25.

RSVIGSGLCLLCWTVRRGRR: the growth estimate is < -0.25.
